{"source": "PubChem BioAssay AID652243 (Drosophila RNAi Screening Center, 2013)", "screen": "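Fly regulators of androgen-dependent reporter output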 (primary screen)", "cells": "Drosophila S2R+ cells", "reagent": "long dsRNA against Drosophila genes", "time to read-out": "72 h (48 h, then 24 h hormone)", "treatment": "synthetic androgen R1881 at 10 nM for 24 h", "measurement": "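Firefly light from an androgen-responsive reporter and Renilla control light per well, raw and unnormalised, for each of two replicates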", "direction": "firefly reporter light: higher = more light from androgen-responsive reporter; Renilla control light: higher = more constitutive control signal (cell number, transfection)", "rule for the call": "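Across duplicate plates, a knock-down whose log firefly/Renilla ratio shifted a set fold down or up from the GFP/LacZ control mean was a hit; the downward cut appears as both 1.5 and 3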", "calls": "active = hit: reporter lowered or raised; inactive = no hit", "note": "The screen tested about 24,000 reagents; shown is an unselected part of those that have a named target and a result. Of all reagents, 246 (1%) were called active. 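Plates not normalised; calls are printed but the firefly/Renilla ratio behind them is not deposited; fold cut for lowering reported inconsistently.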 Raw values are not corrected between plates. Not stated in the record: the amount of reagent."}
{"Target gene": "CG42789", "DRSC id": "DRSC13793", "firefly reporter light, replicate 1": 5.22e5, "firefly reporter light, replicate 2": 5.47e5, "Renilla control light, replicate 1": 3.22e6, "Renilla control light, replicate 2": 3.89e6, "Call": "inactive"}
{"Target gene": "grass (Gram-positive Specific Serine protease)", "DRSC id": "DRSC15911", "firefly reporter light, replicate 1": 1.78e5, "firefly reporter light, replicate 2": 2.10e5, "Renilla control light, replicate 1": 2.99e6, "Renilla control light, replicate 2": 3.27e6, "Call": "inactive"}
{"Target gene": "CG7231", "DRSC id": "DRSC03034", "firefly reporter light, replicate 1": 1.88e5, "firefly reporter light, replicate 2": 1.50e5, "Renilla control light, replicate 1": 1.64e6, "Renilla control light, replicate 2": 1.48e6, "Call": "inactive"}
{"Target gene": "Su(z)12", "DRSC id": "DRSC11293", "firefly reporter light, replicate 1": 1.50e5, "firefly reporter light, replicate 2": 1.04e5, "Renilla control light, replicate 1": 1.71e6, "Renilla control light, replicate 2": 1.81e6, "Call": "inactive"}
{"Target gene": "Su(z)12", "DRSC id": "DRSC26081", "firefly reporter light, replicate 1": 3.35e5, "firefly reporter light, replicate 2": 3.56e5, "Renilla control light, replicate 1": 6.37e5, "Renilla control light, replicate 2": 5.54e5, "Call": "inactive"}
{"Target gene": "CG17928", "DRSC id": "DRSC02644", "firefly reporter light, replicate 1": 1.40e5, "firefly reporter light, replicate 2": 2.19e5, "Renilla control light, replicate 1": 1.83e6, "Renilla control light, replicate 2": 2.10e6, "Call": "inactive"}
{"Target gene": "CG6689", "DRSC id": "DRSC16095", "firefly reporter light, replicate 1": 61677, "firefly reporter light, replicate 2": 76681, "Renilla control light, replicate 1": 3.83e5, "Renilla control light, replicate 2": 3.27e5, "Call": "inactive"}
{"Target gene": "CG6689", "DRSC id": "DRSC28313", "firefly reporter light, replicate 1": 4.18e5, "firefly reporter light, replicate 2": 6.40e5, "Renilla control light, replicate 1": 1.13e6, "Renilla control light, replicate 2": 1.47e6, "Call": "inactive"}
{"Target gene": "Naa80 (N(alpha)-acetyltransferase 80)", "DRSC id": "DRSC16429", "firefly reporter light, replicate 1": 90351, "firefly reporter light, replicate 2": 87528, "Renilla control light, replicate 1": 1.09e6, "Renilla control light, replicate 2": 1.26e6, "Call": "inactive"}
{"Target gene": "Naa80 (N(alpha)-acetyltransferase 80)", "DRSC id": "DRSC28038", "firefly reporter light, replicate 1": 6.61e5, "firefly reporter light, replicate 2": 6.16e5, "Renilla control light, replicate 1": 1.73e6, "Renilla control light, replicate 2": 1.74e6, "Call": "inactive"}
{"Target gene": "CG15211", "DRSC id": "DRSC19657", "firefly reporter light, replicate 1": 3.41e5, "firefly reporter light, replicate 2": 3.77e5, "Renilla control light, replicate 1": 2.59e6, "Renilla control light, replicate 2": 2.40e6, "Call": "inactive"}
{"Target gene": "ari-1 (ariadne 1)", "DRSC id": "DRSC20308", "firefly reporter light, replicate 1": 1.88e5, "firefly reporter light, replicate 2": 5.53e5, "Renilla control light, replicate 1": 5.26e6, "Renilla control light, replicate 2": 4.90e6, "Call": "inactive"}
{"Target gene": "ari-1 (ariadne 1)", "DRSC id": "DRSC21603", "firefly reporter light, replicate 1": 7.58e5, "firefly reporter light, replicate 2": 7.26e5, "Renilla control light, replicate 1": 2.02e6, "Renilla control light, replicate 2": 2.12e6, "Call": "inactive"}
{"Target gene": "ari-1 (ariadne 1)", "DRSC id": "DRSC27556", "firefly reporter light, replicate 1": 3.07e5, "firefly reporter light, replicate 2": 1.54e5, "Renilla control light, replicate 1": 5.63e5, "Renilla control light, replicate 2": 8.17e5, "Call": "inactive"}
{"Target gene": "ND-18 (NADH dehydrogenase (ubiquinone) 18 kDa subunit)", "DRSC id": "DRSC19441", "firefly reporter light, replicate 1": 92582, "firefly reporter light, replicate 2": 1.08e5, "Renilla control light, replicate 1": 4.32e5, "Renilla control light, replicate 2": 3.35e5, "Call": "inactive"}
{"Target gene": "Pdha (Pyruvate dehydrogenase E1 alpha subunit)", "DRSC id": "DRSC18413", "firefly reporter light, replicate 1": 1.96e5, "firefly reporter light, replicate 2": 2.31e5, "Renilla control light, replicate 1": 2.36e6, "Renilla control light, replicate 2": 1.54e6, "Call": "inactive"}
{"Target gene": "Pdha (Pyruvate dehydrogenase E1 alpha subunit)", "DRSC id": "DRSC27138", "firefly reporter light, replicate 1": 2.78e5, "firefly reporter light, replicate 2": 2.31e5, "Renilla control light, replicate 1": 7.08e5, "Renilla control light, replicate 2": 6.37e5, "Call": "inactive"}
{"Target gene": "CG15127", "DRSC id": "DRSC05802", "firefly reporter light, replicate 1": 2.02e5, "firefly reporter light, replicate 2": 1.09e5, "Renilla control light, replicate 1": 2.83e5, "Renilla control light, replicate 2": 2.32e5, "Call": "inactive"}
{"Target gene": "CG15127", "DRSC id": "DRSC06549", "firefly reporter light, replicate 1": 1.99e5, "firefly reporter light, replicate 2": 2.17e5, "Renilla control light, replicate 1": 2.02e6, "Renilla control light, replicate 2": 2.01e6, "Call": "inactive"}
{"Target gene": "CG5376", "DRSC id": "DRSC15782", "firefly reporter light, replicate 1": 2.05e5, "firefly reporter light, replicate 2": 2.44e5, "Renilla control light, replicate 1": 3.09e6, "Renilla control light, replicate 2": 3.22e6, "Call": "inactive"}
{"Target gene": "CG5376", "DRSC id": "DRSC29433", "firefly reporter light, replicate 1": 6.88e5, "firefly reporter light, replicate 2": 7.24e5, "Renilla control light, replicate 1": 9.10e5, "Renilla control light, replicate 2": 9.10e5, "Call": "inactive"}
